# PubChem BioAssay AID540303 (National Center for Advancing Translational Sciences (NCATS), 2011)
# The campaign covered roughly 330,000 compounds. About 1,000 (0.3%) were called active. Inconclusive means that the source gave no clear call. Such entries were picked first, then a sample of the others. The call rests on the fitted dose curve; in most records, active means well fitted inhibition curve with a large enough effect; inconclusive means small, poorly fitted or top-dose-only effect; inactive means no such curve, though single readings can be large or run the other way; tested in mouse RAW 264.7 cells. Potencies beside an inconclusive call are fits to weak or partial responses and may not hold up.
# Experiment: qHTS for Inhibitors of Cell Surface uPA Generation; further: nearly all actives have a fitted effect of over 55% in size
# Details: cell surface uPA generation assay; series mostly up to 38.3 µM
# Summary of the method: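 ATP-Lite luminescence in RAW 264.7 cells after 24 h of exposure to compound, tested up to 38.3 uM final in 1:5 steps. Raised ATP reflects inhibition of uPA-dependent LF delivery to the cytoplasm.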
# Potency means the concentration at half of the fitted maximal effect.
row,Structure (SMILES),Potency
1,CCC(C)c1ccc(NC(=O)c2cccs2)cc1 (stereo not drawn),"inconclusive: 5.01 µM [inhibitor, partial curve, poor fit]"
2,CN(C)Cc1ccc(-c2nc3cccc4c3n2CCNC4=O)cc1,"inconclusive: 12.6 µM [inhibitor, single point]"
3,COc1ccc(Nc2nccc(-c3cccc(N)c3)n2)cc1,"inconclusive: 12.6 µM [inhibitor, single point]"
4,CCOC(=O)Cc1csc(NC(=O)/C=C/c2ccc(Cl)cc2)n1,"inconclusive: 3.16 µM [inhibitor, partial curve]"
5,Cc1cccc(C)c1N(CC(=O)N1CCN(C)CC1)S(C)(=O)=O,inactive
6,COc1ccc(NC(=O)n2ncc3c(C)cccc32)cc1,"inconclusive: 10 µM [inhibitor, single point]"
7,Cc1ccccc1-n1nc2c(c1NC(=O)C1CCCC1)CS(=O)(=O)C2,inactive
8,COc1ccc(C2=Nn3c(nnc3-c3ccccc3OC)SC2)cc1OCC1CC1,"inconclusive: 0.01 µM [inhibitor, full curve, poor fit]"
9,COc1ccc(NC2CCCN(C(=O)CCc3cccc(Cl)c3)C2)cc1 (stereo not drawn),"inconclusive: 0.891 µM [inhibitor, partial curve, poor fit]"
10,COc1ccc(C=C2SC(=O)NC2=O)cc1OC,inactive
11,COc1cc([N+](=O)[O-])cc(/C=N/NC(=O)Cn2nc(C)cc2C)c1O,"inconclusive: 28.2 µM [inhibitor, single point]"
12,CCC(=O)NNc1nc2c(C)cc(C)cc2s1,inactive
13,CC(C)(C)NC(=O)C(c1ccncc1)N(Cc1cccs1)C(=O)Cn1nnc(-c2cccs2)n1 (stereo not drawn),"inconclusive: 10 µM [inhibitor, single point]"
14,Cc1nn(-c2ccccc2)cc1C(=S)Nc1ccccc1,inactive
15,COc1c(C(CC(C)C)OC(C)=O)ccc2c1C(=O)OCc1cc(C)cc(O)c1O2 (stereo not drawn),"inconclusive: 28.2 µM [inhibitor, single point]"
16,CN1CCc2cc3c(c4c2[C@H]1[C@H](O)c1ccccc1-4)OCO3,"inconclusive: 14.1 µM [inhibitor, single point]"
17,Cc1ccc(N(Cc2cc(=O)[nH]c3ccccc23)C(=O)CCl)cc1,"inconclusive: 3.55 µM [inhibitor, single point]"
18,O=C(/C=C/c1cccs1)c1ccc(N2CCOCC2)cc1,"inconclusive: 7.94 µM [inhibitor, partial curve, poor fit]"
19,CCOC(=O)N1CCN(S(=O)(=O)c2ccc(C(=O)NNc3nc4ccc(Cl)cc4s3)cc2)CC1,"inconclusive: 7.94 µM [inhibitor, single point]"
20,O=C1NC(=O)/C(=C\c2ccc(O)cc2O)S1,"inconclusive: 12.6 µM [inhibitor, single point]"
21,N#Cc1ccc(C(=O)N2CCC3CC2c2cc(-c4ccc(F)cc4)ccc23)cc1 (stereo not drawn),inactive
22,CCOc1ccc2[nH]c(C(=O)N/N=C/c3cccc(OC)c3OC)cc2c1,"inconclusive: 22.4 µM [inhibitor, single point]"
23,CCOC(=O)C(c1ccccc1)C(Nc1ccc(F)cc1)c1ccccn1 (stereo not drawn),inactive

# Two of these compounds in another layout.
row	Structure (SMILES)	Potency
9	COc1ccc(NC2CCCN(C(=O)CCc3cccc(Cl)c3)C2)cc1 (stereo not drawn)	inconclusive: 0.891 µM [inhibitor, partial curve, poor fit]
12	CCC(=O)NNc1nc2c(C)cc(C)cc2s1	inactive

# Continuation.

row,Structure (SMILES),Potency
1,Cc1nc2ccccc2nc1OCc1ccccc1,inactive
2,COc1ccccc1CNS(=O)(=O)c1ccc(-c2cnc(C3CC3)o2)cc1,active: 0.282 µM
3,COc1ccc2cc([C@@H](C)C(=O)O)ccc2c1,"inconclusive: 0.0079 µM [inhibitor, full curve, poor fit]"
4,O=C(Nc1ccc(-c2csc(Nc3ccccc3)n2)cc1)c1ccccc1,"inconclusive: 3.98 µM [inhibitor, partial curve, poor fit]"
5,C(=N\n1cnnc1)/c1cccc(Oc2ccccc2)c1,inactive
6,CCCCNC(=O)C(=O)N/N=C/c1ccc(OCc2ccccc2)cc1,"inconclusive: 31.6 µM [inhibitor, single point]"
7,O=C(NC(Cc1ccccc1)C(=O)N1CCN(c2ccccc2O)CC1)c1ccccc1 (stereo not drawn),inactive
8,CC(NC(=O)c1cc(COc2cccc(C(F)(F)F)c2)on1)c1nccs1 (stereo not drawn),"inconclusive: 12.6 µM [inhibitor, single point]"
9,COc1ccc(NC(=O)CSc2n[nH]c(C)c2[N+](=O)[O-])cc1,"inconclusive: 11.2 µM [inhibitor, single point]"
10,CC(/C=C/c1ccc2c(c1)OCO2)=N/NC(=O)c1ccncc1,"inconclusive: 10 µM [inhibitor, partial curve, poor fit]"
11,CCCNC(=O)c1c(CSc2ccc(Cl)cc2)noc1C(=O)NCc1ccccc1,"inconclusive: 12.6 µM [inhibitor, single point]"
12,COc1ccc(NC(=O)c2nc(C)c(C3(C)CC(c4cccnc4)=NO3)s2)cc1 (stereo not drawn),active: 1.58 µM
13,CC(=O)N1CCN=C1SCc1ccccc1Cl,"inconclusive: 10 µM [inhibitor, partial curve, poor fit]"
14,COc1ccccc1C(=O)Nc1ccnn1C1CCN(Cc2cn(C)c3ccccc23)CC1,active: 10 µM
15,CC(=O)OC1(C(C)=O)CCC2C3CC(C(F)(F)F)C4=CC(=O)CCC4(C)C3CCC21C (stereo not drawn),inactive
16,COCCNC(=O)c1onc(CCl)c1C(=O)OC,"inconclusive: 7.08 µM [inhibitor, partial curve, poor fit]"
17,CCn1c(SCc2nc3ccccc3c(=O)[nH]2)nnc1C(C)NC(=O)c1ccccc1F (stereo not drawn),inactive
18,COc1cc(/C=N/NC(=O)c2ccccc2Cl)ccc1Oc1ccc([N+](=O)[O-])cn1,"inconclusive: 28.2 µM [inhibitor, single point]"
19,COc1ccc(COc2cc(-c3cccc(OC)c3)nc3ccc(NC(=O)c4ccc(N(C)C)cc4)cc23)cc1,"inconclusive: 12.6 µM [inhibitor, single point]"
20,COc1ccc(OCC(=O)O/N=C(\N)c2ccc(OC)c(OC)c2)cc1,inactive
21,CCC(C)c1ccccc1NC(=O)COc1ccc(-n2cnnn2)cc1 (stereo not drawn),"inconclusive: 7.08 µM [inhibitor, single point]"
22,CCCc1nn(-c2cc(Cl)ccc2OC)c2c1C(=O)CC(C)(C)C2,"inconclusive: 17.8 µM [inhibitor, single point]"
23,CCOC(=O)c1ccc(-n2cccc2/C=C2\NC(=O)NC2=O)cc1,"inconclusive: 10 µM [inhibitor, partial curve, poor fit]"

row,Structure (SMILES),Potency
1,Cc1ccc2c(c1)N(C(=O)CCC(=O)NCCCN1CCC(Cc3ccccc3)CC1)CCO2,"inconclusive: 11.2 µM [inhibitor, partial curve, poor fit]"
2,COc1ccc(OCCC(=O)OCC(=O)NCc2ccccc2OC)cc1,inactive
3,CCCn1cnc2cc(NC(=O)c3ccco3)ccc21,"inconclusive: 12.6 µM [inhibitor, partial curve]"
4,C[C@@H](NC(=O)/C(C#N)=C/c1ccc(O)c(O)c1)c1ccccc1,"inconclusive: 3.98 µM [inhibitor, partial curve]"
5,O=C(Nc1ccc2c(c1)OCCO2)c1ccc2nccnc2c1,"inconclusive: 5.01 µM [inhibitor, partial curve, poor fit]"
6,CC(C)(C)S(=O)(=O)N1Cc2cc(CO)cc(CCO)c2[C@@H]1CCO,inactive
7,N/C(=N\OC(=O)N1c2ccccc2Sc2ccccc21)c1ccccc1,inactive
8,COc1cccc(Oc2ccc(C(F)(F)F)cc2NC(=O)CCc2nc3ccccc3c(=O)[nH]2)c1,"inconclusive: 22.4 µM [inhibitor, single point]"
9,O=C(CCl)Nc1ccccc1C(=O)NCc1ccccc1,"inconclusive: 12.6 µM [inhibitor, single point]"
10,C=CCC[C@@H](Cc1ccc(F)cc1)C(=O)OC[C@@H]1CCCN1C(=O)[C@@H](CC=C)CC(=O)N[C@@H](CO)Cc1ccccc1,"inconclusive: 11.2 µM [inhibitor, single point]"
11,COc1cc(C[C@@H]2C(=O)OC[C@H]2Cc2ccc(OC)c(OC)c2)ccc1O,"inconclusive: 3.55 µM [inhibitor, partial curve, poor fit]"
12,CSc1nc2ccc(NC(=O)c3cccs3)cc2s1,"inconclusive: 8.91 µM [inhibitor, single point]"
13,CC(C)c1nc2ccc(Br)cn2c1NC1CCCC1,"inconclusive: 0.0251 µM [inhibitor, full curve, poor fit]"
14,c1cc2c3c(cccc3c1)-c1cnccc1-2,inactive
15,O=C(Nc1nc2cc3c(cc2s1)OCCO3)C1=COCCO1,"inconclusive: 3.55 µM [inhibitor, partial curve]"
16,Cc1ccccc1Nc1nc(-c2cccnc2)cs1,"inconclusive: 10 µM [inhibitor, partial curve, poor fit]"
17,Cc1c(CCC(=O)NCCCn2ccnc2)c(=O)oc2cc3oc4c(c3cc12)CCCC4,"inconclusive: 11.2 µM [inhibitor, single point]"
18,CC(=O)Nc1ccc(OS(=O)(=O)c2ccc([N+](=O)[O-])cc2)cc1,"inconclusive: 7.08 µM [inhibitor, single point]"
19,CO/N=C/NC(=O)c1ccc([N+](=O)[O-])c(CS(=O)(=O)c2ccc(Cl)cc2)c1,inactive
20,CC(C)Oc1cc(O)c2c(=O)c(-c3ccc(O)cc3)coc2c1,"inconclusive: 12.6 µM [inhibitor, single point]"
21,Cc1cc2ccccc2n2c(SCC(=O)NCC3CCCO3)nnc12 (stereo not drawn),"inconclusive: 0.0141 µM [inhibitor, full curve, poor fit]"
22,CC(C)(C)c1nnc(NC(=O)c2cccs2)s1,"inconclusive: 6.31 µM [inhibitor, single point]"

# Two records drawn at random from the list so far, as already listed:
row,Structure (SMILES),Potency
4,C[C@@H](NC(=O)/C(C#N)=C/c1ccc(O)c(O)c1)c1ccccc1,"inconclusive: 3.98 µM [inhibitor, partial curve]"
15,O=C(Nc1nc2cc3c(cc2s1)OCCO3)C1=COCCO1,"inconclusive: 3.55 µM [inhibitor, partial curve]"
